Results reported in the supplement of paper PMC12889115.
This is one part of the list. These are raw signals, not scaled to a control.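 Primary screen: polymyxin B was added at a level permeabilizing Salmonella outer membranes while sparing inner membranes. DMSO wells, both with and without polymyxin B, established maximum growth. Plate-to-plate variation meant each plate was ranked on its own, and the lowest-OD600 compounds were selected as hits.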

Tested on: Salmonella enterica serovar Typhimurium SL1344
Experiment: bacterial growth OD600 after 18 h with compound and polymyxin B; higher = more bacterial growth (less inhibition)
Details: 50 µM, Mueller-Hinton broth

O=C(NCC1CCCO1)C1CCN(C2CCN(C(=O)/C=C/c3ccccc3)CC2)CC1 (stereo unspecified) was tested. Which “bacterial growth OD600” value (polymyxin B 1 µg/mL) did it give?
Its value is 0.741.

Which “bacterial growth OD600” value (polymyxin B 1 µg/mL) does the source give for Cc1ncc(CN2CCC(n3nccc3NC(=O)Cc3ccccc3)CC2)s1 here?
Its value is 0.866.

For CCC1CN(Cc2coc3ccccc3c2=O)Cc2cc(OC)ccc2O1 (stereo unspecified), which “bacterial growth OD600” value (polymyxin B 0.75 µg/mL) is on record?
The value was 0.677.

Cc1ccccc1-c1cnc(-c2ccncc2)nc1C1CCCN(Cc2ccc(F)cc2)C1 (stereo unspecified) was tested. Which “bacterial growth OD600” value (polymyxin B 0.75 µg/mL) did it give?
Its value is 0.056.

Which “bacterial growth OD600” value (polymyxin B 0.75 µg/mL) does the source give for CCOC(=O)N1CCC(NC2CCN(c3ccc(C(=O)NCc4ccccc4F)cc3)CC2)CC1 here?
Its value is 0.864.

With O=C(NCCc1cscn1)c1cc(COc2cccc(F)c2)[nH]n1 as the compound, how does the “bacterial growth OD600” value (polymyxin B 1 µg/mL) read?
The value was 0.992.

With COc1ccc(C(=O)NC2CC2)c(OC2CCN(Cc3cnc(SC)nc3)CC2)c1 as the compound, how does the “bacterial growth OD600” value (polymyxin B 1 µg/mL) read?
The value was 0.974.

Which “bacterial growth OD600” value (polymyxin B 0.75 µg/mL) does the source give for CN(CCc1ccccn1)C(=O)c1cc(NC(=O)CC2CCCC2)cc2nc(C3CCCO3)n(C)c12 (stereo unspecified) here?
Its value is 0.814.

Which “bacterial growth OD600” value (polymyxin B 1 µg/mL) does the source give for COc1cccc(-c2ccc(NC(=O)C3CCCN(CC4CC4)C3)cc2)c1 (stereo unspecified) here?
Its value is 0.717.

For Cc1cc(C)n(CCNC(=O)C2CCC(=O)N(Cc3ccc(Cl)cc3)C2)n1 (stereo unspecified), which “bacterial growth OD600” value (polymyxin B 1 µg/mL) is on record?
Its value is 0.932.

For O=C(NCc1cccc(Cl)c1)C1CCC(=O)N(C2CC2)C1 (stereo unspecified), which “bacterial growth OD600” value (polymyxin B 1 µg/mL) is on record?
The value was 0.865.

For CN(Cc1cc(C2CC2)[nH]n1)C(=O)c1cc(COc2cccc3cnccc23)on1, which “bacterial growth OD600” value (polymyxin B 1 µg/mL) is on record?
Its value is 0.893.

CCN(C)C(=O)C1CCCN(c2nc(-c3ccccc3)nc3c2CCC3)C1 (stereo unspecified) was tested. Which “bacterial growth OD600” value (polymyxin B 1 µg/mL) did it give?
Its value is 0.531.

For CC(C)(CO)NC(=O)c1ccc2nc(Cc3cccc(Cl)c3)oc2c1, which “bacterial growth OD600” value (polymyxin B 1 µg/mL) is on record?
The value was 0.847.

O=C(c1cccc(F)c1F)N1CCOc2ccc(CN3CCN(c4ccccn4)CC3)cc2C1 was tested. Which “bacterial growth OD600” value (polymyxin B 0.75 µg/mL) did it give?
Its value is 0.817.

How did the “bacterial growth OD600” value (polymyxin B 1 µg/mL) turn out when CC(=O)NCCC(=O)N1CCCC1C(=O)Nc1cccc(-n2cccn2)c1 (stereo unspecified) was run?
Its value is 1.05.

For COc1ccccc1CN1CCC(C(Cc2ccccc2F)N(C)C(=O)c2ccoc2C)CC1 (stereo unspecified), which “bacterial growth OD600” value (polymyxin B 0.75 µg/mL) is on record?
The value was 1.03.

How did the “bacterial growth OD600” value (polymyxin B 0.75 µg/mL) turn out when COc1ccc(OC2CCN(C3CCCC3)CC2)c(C(=O)NCCc2cscn2)c1 was run?
The value was 0.772.

For COc1cccc(OCc2nc(C(=O)N(C)Cc3cccnc3)co2)c1, which “bacterial growth OD600” value (polymyxin B 1 µg/mL) is on record?
The value was 0.851.

With Cc1occc1C(=O)N(C)C(Cc1ccccc1)C1CCN(C(=O)c2ccc3c(c2)no[n+]3[O-])CC1 (stereo unspecified) as the compound, how does the “bacterial growth OD600” value (polymyxin B 0.75 µg/mL) read?
Its value is 0.243.

For O=C(c1ccc(N2CCC[C@H]2CO)nc1)N1CCC(CCn2cccn2)CC1, which “bacterial growth OD600” value (polymyxin B 0.75 µg/mL) is on record?
Its value is 0.916.

How did the “bacterial growth OD600” value (polymyxin B 0.75 µg/mL) turn out when COCCN1C(=O)CC(CC(=O)N2CCCC2c2nc3ccccc3s2)(c2ccccc2F)C1=O (stereo unspecified) was run?
Its value is 0.813.

For CSCCCN1CCC(Oc2cc(Cl)ccc2C(=O)N2CCCCC2)CC1, which “bacterial growth OD600” value (polymyxin B 0.75 µg/mL) is on record?
Its value is 0.793.

COc1ccc(-c2nn(-c3ccccc3C)cc2CN2CCC[C@H]2CO)cc1F was tested. Which “bacterial growth OD600” value (polymyxin B 0.75 µg/mL) did it give?
The value was 0.705.

For COCc1ccc(C(=O)N2CCCCC2C(=O)Nc2cccc(-c3nnc(C)s3)c2)o1 (stereo unspecified), which “bacterial growth OD600” value (polymyxin B 0.75 µg/mL) is on record?
Its value is 0.84.

How did the “bacterial growth OD600” value (polymyxin B 0.75 µg/mL) turn out when COc1ccccc1CCN1CCCC(CN(C)Cc2ccc(C)o2)C1 (stereo unspecified) was run?
Its value is 0.797.

Cc1cc(OCc2cc(C(=O)N[C@H]3CCCCNC3=O)no2)cc(C)c1Cl was tested. Which “bacterial growth OD600” value (polymyxin B 0.75 µg/mL) did it give?
Its value is 0.629.

For Cc1ccc(CN(C)C(=O)CC(c2ccccc2)c2ccc3c(c2)OCO3)o1 (stereo unspecified), which “bacterial growth OD600” value (polymyxin B 1 µg/mL) is on record?
The value was 0.012.

Cc1ccccc1N1CCN(C2CCCN(C(=O)CCn3cnc4ccccc43)C2)CC1 (stereo unspecified) was tested. Which “bacterial growth OD600” value (polymyxin B 1 µg/mL) did it give?
The value was 0.806.

For CC(C)(C)CC(=O)N1CCC2(CCCN(Cc3cccc(F)c3F)C2=O)C1 (stereo unspecified), which “bacterial growth OD600” value (polymyxin B 1 µg/mL) is on record?
Its value is 0.884.

With O=C(c1cn(C/C=C/c2ccccc2)nn1)N1CCCN(C2CCCCC2)CC1 as the compound, how does the “bacterial growth OD600” value (polymyxin B 1 µg/mL) read?
The value was 1.26.
